Publication PMC8766458, “Deciphering the mechanism of processive ssDNA digestion by the Dna2-RPA ensemble” (Nature Communications, 2022)

How the values were obtained:
[1] = system: dna2-D657A (nuclease-dead) + RPA; assay: EMSA; details: ternary complex, range given jointly for 3'-overhang and gap; EMSA: 25 mM Tris-HCl pH 7.5, 150 mM KCl, 1 mM DTT, 100 µg/mL BSA, 5 nM DNA, 30 °C 10 min, 4% native PAGE in 0.2x TBE; recombinant protein; protein details: His6, FLAG,none; label: 32P 5'-end
[2] = system: dna2-P504S (dna2-1) + Rfa1-NAB; assay: EMSA; details: no ternary complex; EMSA: 25 mM Tris-HCl pH 7.5, 150 mM KCl, 1 mM DTT, 100 µg/mL BSA, 5 nM DNA, 30 °C 10 min, 4% native PAGE in 0.2x TBE; recombinant protein; protein details: FLAG, His,N-terminal His6 (TEV removable); label: 32P 5'-end; single-stranded DNA

Sequence	binding result [1]	binding result [2]
TTCATGGCTTAGAGCTTAATTTTTTTTTTTTTTTTTTTTTTTTTTTTTTT / ATTAAGCTCTAAGCCATGAA [3'-overhanging dT(30) DNA (S12+S13)]	binds more weakly	
TTCATGGCTTAGAGCTTAATTTTTTTTTTTTTTTTTTTTTTTTTTTTTTTTTGATAAGAGGTCATTTGAA / TTCAAATGACCTCTTATCAA / ATTAAGCTCTAAGCCATGAA [dT(30)-gap DNA (S14+S11+S13)]	binds more weakly	
TTTTTTTTTTTTTTTTTTTT [dT(20)]		no binding

For part of these data: A negative result means that nothing was seen under these conditions. For part of these data: Weaker means in comparison with the reference protein, sequence or condition of that experiment.
